Reference: paper PMC2629585
These are yes or no findings as the source states them, for the method shown. For part of these data: In cells and extracts the contact can be indirect. Some binding calls cover weakened binding; strength is not graded here. For part of these data: Where a sequence is shown, tags or fusion partners need not be part of it. Values belong to the substance of their own block, whether it stands above or below them.

By UniProt entry, the sequences of proteins in these tests, tags left out. Where a name states a change or a piece, a line headed by the entry shows the natural chain unless it says otherwise. Residues count along the entry.
UniProt Q15485, residues 26-313: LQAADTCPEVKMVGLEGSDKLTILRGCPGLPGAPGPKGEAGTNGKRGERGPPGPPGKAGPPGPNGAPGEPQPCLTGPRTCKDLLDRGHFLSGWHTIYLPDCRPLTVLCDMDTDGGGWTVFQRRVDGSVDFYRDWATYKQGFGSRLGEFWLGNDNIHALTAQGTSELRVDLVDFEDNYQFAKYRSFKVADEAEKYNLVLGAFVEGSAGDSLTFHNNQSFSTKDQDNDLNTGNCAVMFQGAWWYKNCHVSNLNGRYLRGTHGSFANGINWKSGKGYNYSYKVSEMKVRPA
UniProt O75636, residues 24-299: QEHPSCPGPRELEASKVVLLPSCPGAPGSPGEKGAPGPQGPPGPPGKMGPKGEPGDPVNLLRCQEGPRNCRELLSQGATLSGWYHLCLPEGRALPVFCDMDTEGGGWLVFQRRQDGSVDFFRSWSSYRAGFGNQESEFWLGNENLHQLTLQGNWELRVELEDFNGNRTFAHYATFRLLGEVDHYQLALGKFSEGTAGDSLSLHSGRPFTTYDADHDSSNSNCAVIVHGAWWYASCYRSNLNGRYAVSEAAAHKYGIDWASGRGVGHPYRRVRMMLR
UniProt O00602: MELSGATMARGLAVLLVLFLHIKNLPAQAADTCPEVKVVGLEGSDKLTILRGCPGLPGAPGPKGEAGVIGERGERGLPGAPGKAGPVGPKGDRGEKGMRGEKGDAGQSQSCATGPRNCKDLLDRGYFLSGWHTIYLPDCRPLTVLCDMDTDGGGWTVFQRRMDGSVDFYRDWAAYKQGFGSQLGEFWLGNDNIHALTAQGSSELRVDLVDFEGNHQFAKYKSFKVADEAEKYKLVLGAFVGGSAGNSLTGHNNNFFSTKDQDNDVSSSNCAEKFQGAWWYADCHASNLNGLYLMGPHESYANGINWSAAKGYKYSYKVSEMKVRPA
UniProt O00187, residues 16-686: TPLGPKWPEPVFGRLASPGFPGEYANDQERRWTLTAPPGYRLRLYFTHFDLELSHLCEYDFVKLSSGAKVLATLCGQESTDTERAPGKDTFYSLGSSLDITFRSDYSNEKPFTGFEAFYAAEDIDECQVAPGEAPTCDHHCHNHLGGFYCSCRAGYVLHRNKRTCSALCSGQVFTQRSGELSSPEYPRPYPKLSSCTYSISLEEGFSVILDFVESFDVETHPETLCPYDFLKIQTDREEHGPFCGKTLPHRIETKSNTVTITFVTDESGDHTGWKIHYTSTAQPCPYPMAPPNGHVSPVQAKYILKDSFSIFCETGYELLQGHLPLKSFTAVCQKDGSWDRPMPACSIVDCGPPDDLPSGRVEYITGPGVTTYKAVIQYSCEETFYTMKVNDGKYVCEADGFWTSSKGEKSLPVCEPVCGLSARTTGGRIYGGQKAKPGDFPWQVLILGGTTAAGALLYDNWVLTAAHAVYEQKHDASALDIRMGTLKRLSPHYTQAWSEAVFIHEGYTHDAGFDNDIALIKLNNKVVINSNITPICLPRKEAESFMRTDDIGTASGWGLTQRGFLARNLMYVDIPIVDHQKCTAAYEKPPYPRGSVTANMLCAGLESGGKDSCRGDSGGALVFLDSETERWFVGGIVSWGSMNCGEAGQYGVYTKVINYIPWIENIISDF

Experiments:
[1] = target: T1, C-reactive protein (CRP), endogenous in human patient serum (human (endogenous in serum)) (UniProt P02741); assay: co-IP; 10% patient serum, 50 mM MES pH 6.5, 145 mM NaCl, 1% NP-40, 0 or 2 mM CaCl2; rabbit polyclonal anti-CRP, protein A Sepharose, 4 C; Western blot
T1 sequence: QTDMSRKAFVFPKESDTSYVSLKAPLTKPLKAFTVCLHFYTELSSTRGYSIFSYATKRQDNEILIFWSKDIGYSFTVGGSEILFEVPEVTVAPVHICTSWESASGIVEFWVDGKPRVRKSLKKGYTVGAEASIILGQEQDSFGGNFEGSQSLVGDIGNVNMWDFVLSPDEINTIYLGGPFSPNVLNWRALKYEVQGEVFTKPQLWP

[2] = target: T1, C-reactive protein (CRP), endogenous in human patient serum (human (endogenous in serum)); assay: co-IP; 10% patient serum, 50 mM Tris pH 7.4, 145 mM NaCl, 1% NP-40, 0 or 2.5 mM CaCl2; rabbit polyclonal anti-CRP, protein A Sepharose, 4 C; Western blot
[3] = target: T2, C-reactive protein (CRP), human, purified (Sigma) (human) (UniProt P02741); assay: ELISA; 0.8 ug CRP immobilised on Maxisorp wells; 0, 0.5, 0.8 and 1 ug of L-, H- or M-ficolin added; bound ficolin detected by antibodies; HSA-coated wells subtracted; both purified
T2 sequence: T1 sequence

[4] = target: T2, C-reactive protein (CRP), human, purified (Sigma) (human); assay: co-IP; 10% healthy serum reconstituted with 10 ug/ml CRP (text: pH and calcium adjusted to infection-inflammation condition; legend: pH 7.4, 2.5 mM calcium); rabbit polyclonal anti-CRP, protein A Sepharose; Western blot; only the target purified
[5] = target: T3, CRP, yeast two-hybrid fusion (UniProt P02741); assay: two-hybrid; yeast two-hybrid; growth on QDO plates; empty vector controls for autoactivation
T3 sequence: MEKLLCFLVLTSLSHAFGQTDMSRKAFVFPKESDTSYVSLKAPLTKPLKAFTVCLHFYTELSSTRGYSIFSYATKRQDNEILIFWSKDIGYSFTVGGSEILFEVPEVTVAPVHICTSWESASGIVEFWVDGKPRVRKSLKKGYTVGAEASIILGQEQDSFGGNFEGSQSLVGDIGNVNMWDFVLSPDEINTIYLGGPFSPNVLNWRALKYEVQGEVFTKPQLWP

L-ficolin (human) [6] = target: L-ficolin (human) (UniProt Q15485); assay: ELISA; competition; 0.8 ug L-ficolin immobilised; 0.8 ug CRP with increasing MASP-2 or 0.8 ug MASP-2 with increasing CRP; MBS, 0.05% Tween-20, 1% HSA, pH 6.5, 2 mM calcium; both purified
L-ficolin (human) [7] = target: L-ficolin (human) (UniProt Q15485); assay: ELISA; competition; 0.8 ug L-ficolin immobilised; 0.8 ug CRP with increasing MASP-2 or 0.8 ug MASP-2 with increasing CRP; TBS, 0.05% Tween-20, 1% HSA, pH 7.4, 2.5 mM calcium; both purified

binding [1]: no binding | binding [2]: no binding | binding [4]: no binding
Substance: H-ficolin (from UniProt O75636 24-299)
binding [3]: no binding (tested: up to 1 ug H-ficolin per well)

binding [1]: binds
Substance: L-ficolin (from UniProt Q15485 26-313)

binding [3]: binds
Substance: M-ficolin, recombinant (from UniProt O00602 30-326)

binding [5]: binds
Substance: M-ficolin, yeast two-hybrid fusion (from UniProt O00602 1-326)

binding (L-ficolin (human) [6]): binds | binding (L-ficolin (human) [7]): binds
Substance: Recombinant MASP-2 (from UniProt O00187 16-686) (enzyme)
